Hit rate of the full screen: of about 580,000 compounds, about 6,100 (1.1%) were called active. The inconclusive results got no clear call from the source; some entries with a clear call stand among them for comparison. The call rests on the fitted dose curve; in most records, active means well fitted inhibition curve with a large enough effect; inconclusive means small, poorly fitted or top-dose-only effect, or another doubt; inactive means no such curve, though single readings can be large or run the other way. Potencies beside an inconclusive call are fits to weak or partial responses and may not hold up.
Biological target: Polyunsaturated fatty acid lipoxygenase ALOX12 (Homo sapiens) (UniProt P18054)
Experiment: Primary qHTS assay for inhibitors of human arachidonate 12S-lipoxygenase (ALOX12): Round 2
Details: purified 12hLO, xylenol orange hydroperoxide absorbance; series mostly up to 108 µM
In short: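 Purified human 12hLO at 150 nM in 25 mM Hepes, 0.01% Triton X-100, pH 7.0, preincubated 15 min at room temperature with compound. Reaction started with 40 uM arachidonic acid, 30 min at room temperature. Hydroperoxide measured by Fe-xylenol orange, 573/405 nm absorbance ratio.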
Potency means the concentration at half of the fitted maximal effect.

Protein sequences, listed by entry. Tags and fused reporters are not part of them. Lines headed by an entry give the natural chain unless they say otherwise; changes in a name come on top.
UniProt P18054: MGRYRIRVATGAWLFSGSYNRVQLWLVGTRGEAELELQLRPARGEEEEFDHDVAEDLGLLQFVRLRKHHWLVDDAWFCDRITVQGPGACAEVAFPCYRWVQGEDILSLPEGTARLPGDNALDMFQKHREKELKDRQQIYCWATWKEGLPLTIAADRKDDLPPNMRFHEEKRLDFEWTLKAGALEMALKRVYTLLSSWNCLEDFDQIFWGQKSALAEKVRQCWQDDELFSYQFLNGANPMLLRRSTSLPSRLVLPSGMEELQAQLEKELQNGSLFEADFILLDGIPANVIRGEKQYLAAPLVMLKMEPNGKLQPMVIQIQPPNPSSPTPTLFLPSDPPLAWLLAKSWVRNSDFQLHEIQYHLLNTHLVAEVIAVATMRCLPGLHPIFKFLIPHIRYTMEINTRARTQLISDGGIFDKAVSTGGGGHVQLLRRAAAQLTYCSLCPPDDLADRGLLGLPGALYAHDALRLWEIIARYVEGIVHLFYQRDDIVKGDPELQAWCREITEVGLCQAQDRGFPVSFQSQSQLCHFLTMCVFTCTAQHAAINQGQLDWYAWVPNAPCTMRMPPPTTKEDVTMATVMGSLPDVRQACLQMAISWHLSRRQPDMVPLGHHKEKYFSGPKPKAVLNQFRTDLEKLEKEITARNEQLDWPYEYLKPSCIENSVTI

Row | Structure (SMILES) | Potency
1 | COc1ccc(Cl)cc1NC(=O)/C=C/C(=O)O | inconclusive: 141 µM [inhibitor, single point]
2 | COc1cc(OC)cc(OCc2nc3c(n2Cc2ccccc2)C(=O)N(Cc2cccc(Cl)c2)CCN3)c1 | inactive
3 | O=C(CC(=O)c1ccccc1)Nc1ccc(Cl)cc1 | inactive
4 | O=C(O)C(c1c[nH]c2ccc(Br)cc12)N1CCN(c2ncc(Br)cn2)CC1 (configuration not stated) | inconclusive: 44.7 µM [inhibitor, partial curve, poor fit]
5 | COc1ccc(-c2nc3c(c(=O)[nH]c(=O)n3Cc3ccccc3)n2Cc2ccccc2)cc1 | inactive
6 | O=C(Nc1ccccc1)OCCCCCOC(=O)Nc1ccccc1 | inconclusive: 126 µM [inhibitor, single point]
7 | CCN(C(=O)c1ccc(Br)o1)C1CCS(=O)(=O)C1 (configuration not stated) | inactive
8 | CN(Cc1ccc2c(c1)CCCN2C)C(=O)[C@H]1O[C@@H](n2ccc(=O)[nH]c2=O)[C@H](O)[C@@H]1O | inconclusive: 35.5 µM [inhibitor, single point]
9 | c1ccc(Cc2cnc(N3CCN(Cc4ccc5c(c4)OCCO5)CC3)nc2)cc1 | inconclusive: 44.7 µM [inhibitor, partial curve, poor fit]
10 | NC(N)=NS(=O)(=O)c1ccc(NC(=S)NC(=O)c2ccc3c(c2)OCO3)cc1 | inactive
11 | Cc1cc(SCC(=O)NC2CCS(=O)(=O)C2)nc2ccccc12 (configuration not stated) | inconclusive: 56.2 µM [inhibitor, partial curve, poor fit]
12 | O=C(Nn1c(Cc2cccs2)nc2ccccc2c1=O)c1ccc(F)c(F)c1 | inactive
13 | CC12CCC(C/C1=N\N=C1\NC(=O)/C(=C\c3cccc(Br)c3)S1)C2(C)C (configuration not stated) | inactive
14 | C=CCc1ccc(OCCOCCOc2cccc3ccc(C)nc23)c(OC)c1 | inconclusive: 0.282 µM [inhibitor, full curve, poor fit]
15 | C=CCSc1nc2c(c(=O)[nH]c(=O)n2C)n1CCc1ccccc1 | inconclusive: 44.7 µM [inhibitor, partial curve, poor fit]
16 | CCCN1CCN(CCCNC(=O)c2cc3c(s2)-c2c(C)cccc2OC3)CC1 | inconclusive: 39.8 µM [inhibitor, partial curve, poor fit]
17 | C=CCN1CCc2c(cc(O)c(O)c2Cl)C(c2ccccc2)C1 (configuration not stated) | inconclusive: 12.6 µM [inhibitor, partial curve, poor fit]
18 | NC(=O)c1c(NC(=O)CS(=O)(=O)c2ccc(Cl)cc2)sc2c1CCCC2 | inconclusive: 44.7 µM [inhibitor, partial curve, poor fit]
19 | O=[N+]([O-])c1ccc(/C=C/C2=NN(c3ccccc3)C(c3ccco3)C2)o1 (configuration not stated) | inactive
20 | COc1ccc(NC(=O)C2CCCN(S(=O)(=O)c3ccc4[nH]c(=O)ccc4c3)C2)cc1Cl (configuration not stated) | inconclusive: 100 µM [inhibitor, partial curve, poor fit]
21 | Cc1ccc(NC(=S)NCC(C)(C)N2CCCCC2)cc1Cl | inconclusive: 50.1 µM [inhibitor, partial curve, poor fit]
22 | Cn1c(Cc2cccc3ccccc23)nnc1SCc1ccc([N+](=O)[O-])cc1 | inconclusive: 112 µM [inhibitor, partial curve, poor fit]
23 | CN(Cc1cccc(C(F)(F)F)c1)Cc1ccccc1OCC(=O)O | inconclusive: 14.1 µM [inhibitor, full curve, poor fit]

Row | Structure (SMILES) | Potency
24 | O=C(Nc1cccc(F)c1)c1cc(-c2ccc[nH]2)n[nH]1 | active: 20 µM
25 | COc1cccc(-c2nccc(NCc3ccccc3)n2)c1 | inconclusive: 89.1 µM [inhibitor, partial curve, poor fit]
26 | Cc1ccc(C(=O)NCC(=O)OCC(=O)c2ccc(Cl)s2)cc1 | inconclusive: 44.7 µM [inhibitor, partial curve, poor fit]
27 | Cc1ccc(-c2nc3ccccc3s2)cc1NC(=O)C(C)C | inactive
28 | COCCn1c(N)c(N(Cc2ccccc2)C(=O)C(C)Oc2ccc(Br)cc2)c(=O)[nH]c1=O (configuration not stated) | inconclusive: 0.355 µM [inhibitor, full curve, poor fit]
29 | COCCCNC(=O)CC(NCCCOC)C(=O)O (configuration not stated) | inconclusive: 31.6 µM [inhibitor, partial curve, poor fit]
30 | Cc1ccc(S(=O)(=O)CCC(=O)c2ccc(F)cc2)cc1 | inactive
31 | COC(=O)[C@@]1(Cc2ccc(OC)cc2)[C@H]2c3cc(C(=O)N4CCCC4)n(CCc4ccc(OC)c(Br)c4)c3C[C@H]2CN1C(=O)c1ccccc1 | inconclusive: 79.4 µM [inhibitor, single point]
32 | Cc1ccc(Nc2nc(-c3ccc(O)c(O)c3)cs2)nc1 | active: 22.4 µM
33 | Cc1ccc(NC(=O)c2ccccc2NS(=O)(=O)c2ccc(F)cc2)cc1S(=O)(=O)N1CCCCC1 | inactive
34 | CC(C)NC(=O)C1CCCN(S(=O)(=O)c2ccc3c(ccn3C)c2)C1 (configuration not stated) | inconclusive: 158 µM [inhibitor, partial curve, poor fit]
35 | O=[N+]([O-])c1cccc(-c2noc([C@@H]3C[C@@H](O)CN3CC3CCCCC3)n2)c1 | inconclusive: 31.6 µM [inhibitor, full curve]
36 | O=c1[nH]c(/C=C/c2cccnc2)c([N+](=O)[O-])c(=O)[nH]1 | inactive
37 | CCN(CC(=O)Nc1cccc(S(=O)(=O)N(C)c2ccccc2)c1)Cc1ccccc1 | inactive
38 | O=C(O)c1ccc(Oc2ccccc2)o1 | inactive
39 | CC1(C)Cc2cccc(OCC(=O)Nc3cccc(C(N)=O)c3)c2O1 | inconclusive: 89.1 µM [inhibitor, single point]
40 | CCOC(=O)c1oc2c(c1C)/C(=N\OC(C)=O)CCC2 | inactive
41 | COc1ccc(N2C(=O)CCC2(C#N)c2ccc(OC)cc2)cc1 (configuration not stated) | inconclusive: 31.6 µM [inhibitor, partial curve, poor fit]
42 | CC(C)(C)C1CCC(=NOC(=O)c2ccc(F)cc2)CC1 (configuration not stated) | inactive
43 | Cc1nn2c(c1-c1ccccc1Oc1ccccc1)N(C(=O)COc1ccccc1)CCC2 | inconclusive: 112 µM [inhibitor, partial curve]
44 | Cc1ccc(-c2n[nH]c(=S)n2/N=C/c2c(C)[nH]n(-c3ccccc3)c2=O)cc1 | inconclusive: 50.1 µM [inhibitor, partial curve, poor fit]
45 | CN(CC1CCOC1)S(=O)(=O)c1ccc(C(F)(F)F)cc1 (configuration not stated) | inactive
46 | CCN(CC)S(=O)(=O)c1ccc(N2CCCC2)c(C(=O)OCC(=O)/C(C#N)=C(\C)N)c1 | inconclusive: 31.6 µM [inhibitor, single point]

Copied from the results shown (three entries):
Row | Structure (SMILES) | Potency
43 | Cc1nn2c(c1-c1ccccc1Oc1ccccc1)N(C(=O)COc1ccccc1)CCC2 | inconclusive: 112 µM [inhibitor, partial curve]
44 | Cc1ccc(-c2n[nH]c(=S)n2/N=C/c2c(C)[nH]n(-c3ccccc3)c2=O)cc1 | inconclusive: 50.1 µM [inhibitor, partial curve, poor fit]
45 | CN(CC1CCOC1)S(=O)(=O)c1ccc(C(F)(F)F)cc1 (configuration not stated) | inactive

The results go on.

Row | Structure (SMILES) | Potency
47 | CC(C)OC(=O)CC(=O)CC(O)c1cccc([N+](=O)[O-])c1 (configuration not stated) | inconclusive: 89.1 µM [inhibitor, single point]
48 | CCOc1c(OC(C)=O)ccc(/C=C2\N=C(SCC)SC2=O)c1[N+](=O)[O-] | inconclusive: 15.8 µM [inhibitor, partial curve, poor fit]
49 | CCc1cccc(OCCCCNCCO)c1 | inconclusive: 15.8 µM [inhibitor, partial curve, poor fit]
50 | CCOc1ccc(NC(=O)CN(C)C(=O)Cn2cnc3c2c(=O)n(C)c(=O)n3C)cc1OCC | inconclusive: 141 µM [inhibitor, single point]
51 | C(=N\N1CCN(c2ccccn2)CC1)/c1cccc2ccccc12 | inactive
52 | CCCCc1nc(SCCN2CCOCC2)c2c(=O)n(C)c(=O)n(C)c2n1 | inactive
53 | CC(CNC(=O)Cn1ccc2cc(S(=O)(=O)N3CCCC3)ccc21)c1ccccc1 (configuration not stated) | inactive
54 | CCC1CC(=O)NC(SC)=C1C#N (configuration not stated) | inconclusive: 11.2 µM [inhibitor, partial curve, poor fit]
55 | CS(=O)(=O)c1ccc(-c2cnc([C@@H]3COCCN3C3CCNCC3)[nH]2)cc1 | inactive
56 | O=C(NCc1ccccn1)c1cc(-c2ccc(-c3ccccc3)cc2)nc2ccccc12 | inactive
57 | COC(=O)c1ccc2nc(-c3ccc(F)cc3)c(Cc3ccccc3OC)n2c1 | inconclusive: 28.2 µM [inhibitor, partial curve, poor fit]
58 | O=C(CSc1ncccn1)NC(=O)NC1CCCC1 | inconclusive: 39.8 µM [inhibitor, partial curve]
59 | CC(C)CN(C(=O)Cn1cnc2c1c(=O)n(C)c(=O)n2C)c1nc2ccccc2s1 | inactive
60 | Cc1cc(F)ccc1NC(=O)C1CCCN(C(=O)c2cnn(-c3ccccc3)c2-n2cccc2)C1 (configuration not stated) | inconclusive: 141 µM [inhibitor, single point]
61 | Cc1sc2ncn(Cc3nc(-c4ccco4)no3)c(=O)c2c1C | inconclusive: 31.6 µM [inhibitor, partial curve, poor fit]
62 | Cc1ccc2[nH]c(=O)c(CN(CC3CCCO3)S(=O)(=O)c3ccccc3)cc2c1 (configuration not stated) | inconclusive: 39.8 µM [inhibitor, partial curve, poor fit]
63 | Cc1cccc(-c2csc(N)c2C(=O)OC(C)C)c1 | inconclusive: 70.8 µM [inhibitor, partial curve, poor fit]
64 | O=C(Cn1ncc(Cl)c(Cl)c1=O)NC(=O)NC1CCCCC1 | inconclusive: 112 µM [inhibitor, partial curve, poor fit]
65 | CC(/C=N/n1c(-c2ccc(Cl)cc2)n[nH]c1=S)=C\c1ccco1 | active: 31.6 µM
66 | Cc1ccc(NC(=O)CNCc2ccc(Cl)cc2Cl)cc1S(=O)(=O)N(C)C | inconclusive: 1.58 µM [inhibitor, full curve, poor fit]
67 | COc1ccc(/C=C(/C#N)c2nc3ccccc3[nH]2)cc1OC(F)F | inactive
